The record followed here is paper PMC7192513.

Chains of the proteins cited; added tags and fusions are not shown.
UniProt Q8IJD4: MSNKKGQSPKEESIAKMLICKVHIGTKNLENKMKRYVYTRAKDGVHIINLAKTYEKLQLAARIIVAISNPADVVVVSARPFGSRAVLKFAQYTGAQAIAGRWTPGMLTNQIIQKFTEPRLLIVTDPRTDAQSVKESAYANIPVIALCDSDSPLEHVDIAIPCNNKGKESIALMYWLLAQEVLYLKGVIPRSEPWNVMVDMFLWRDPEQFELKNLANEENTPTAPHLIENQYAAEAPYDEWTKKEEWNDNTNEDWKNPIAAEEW
UniProt Q8IBZ9: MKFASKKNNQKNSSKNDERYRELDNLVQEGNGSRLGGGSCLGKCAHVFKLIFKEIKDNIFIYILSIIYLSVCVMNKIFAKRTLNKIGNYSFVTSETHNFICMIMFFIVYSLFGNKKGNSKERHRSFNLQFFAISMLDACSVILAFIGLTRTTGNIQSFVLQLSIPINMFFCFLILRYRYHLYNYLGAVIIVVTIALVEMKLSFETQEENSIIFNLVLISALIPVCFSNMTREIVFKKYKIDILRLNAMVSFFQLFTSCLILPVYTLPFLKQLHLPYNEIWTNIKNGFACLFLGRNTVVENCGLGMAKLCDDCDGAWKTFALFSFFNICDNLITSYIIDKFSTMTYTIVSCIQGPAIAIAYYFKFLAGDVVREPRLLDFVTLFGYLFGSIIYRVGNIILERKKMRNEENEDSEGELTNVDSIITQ
UniProt Q9BHN1: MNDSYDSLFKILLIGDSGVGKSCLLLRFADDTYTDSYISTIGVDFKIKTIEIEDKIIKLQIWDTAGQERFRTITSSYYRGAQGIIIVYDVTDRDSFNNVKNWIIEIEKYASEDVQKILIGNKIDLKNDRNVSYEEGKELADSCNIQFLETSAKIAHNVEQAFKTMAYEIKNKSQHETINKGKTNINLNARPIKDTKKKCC
UniProt Q7KQL5: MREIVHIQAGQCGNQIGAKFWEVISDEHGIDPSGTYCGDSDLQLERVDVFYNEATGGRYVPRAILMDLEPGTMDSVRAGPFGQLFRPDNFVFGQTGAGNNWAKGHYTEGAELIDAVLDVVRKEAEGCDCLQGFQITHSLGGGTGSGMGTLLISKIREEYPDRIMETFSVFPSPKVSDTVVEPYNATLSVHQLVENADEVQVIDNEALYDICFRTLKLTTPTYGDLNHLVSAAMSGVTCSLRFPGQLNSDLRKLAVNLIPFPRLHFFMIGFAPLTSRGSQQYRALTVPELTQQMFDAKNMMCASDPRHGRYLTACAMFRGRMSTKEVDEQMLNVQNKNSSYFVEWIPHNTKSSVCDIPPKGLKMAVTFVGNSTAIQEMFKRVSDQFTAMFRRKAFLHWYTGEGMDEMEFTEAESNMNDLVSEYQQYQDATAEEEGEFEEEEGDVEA
UniProt C6KT50: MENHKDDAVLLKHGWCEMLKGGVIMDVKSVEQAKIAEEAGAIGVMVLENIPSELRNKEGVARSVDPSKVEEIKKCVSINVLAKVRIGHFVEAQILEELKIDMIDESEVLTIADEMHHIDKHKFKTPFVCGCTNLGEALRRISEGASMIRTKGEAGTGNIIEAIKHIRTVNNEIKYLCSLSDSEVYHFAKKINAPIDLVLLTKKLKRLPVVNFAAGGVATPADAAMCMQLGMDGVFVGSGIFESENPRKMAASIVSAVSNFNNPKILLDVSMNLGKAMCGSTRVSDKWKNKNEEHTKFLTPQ
UniProt Q8IKW5: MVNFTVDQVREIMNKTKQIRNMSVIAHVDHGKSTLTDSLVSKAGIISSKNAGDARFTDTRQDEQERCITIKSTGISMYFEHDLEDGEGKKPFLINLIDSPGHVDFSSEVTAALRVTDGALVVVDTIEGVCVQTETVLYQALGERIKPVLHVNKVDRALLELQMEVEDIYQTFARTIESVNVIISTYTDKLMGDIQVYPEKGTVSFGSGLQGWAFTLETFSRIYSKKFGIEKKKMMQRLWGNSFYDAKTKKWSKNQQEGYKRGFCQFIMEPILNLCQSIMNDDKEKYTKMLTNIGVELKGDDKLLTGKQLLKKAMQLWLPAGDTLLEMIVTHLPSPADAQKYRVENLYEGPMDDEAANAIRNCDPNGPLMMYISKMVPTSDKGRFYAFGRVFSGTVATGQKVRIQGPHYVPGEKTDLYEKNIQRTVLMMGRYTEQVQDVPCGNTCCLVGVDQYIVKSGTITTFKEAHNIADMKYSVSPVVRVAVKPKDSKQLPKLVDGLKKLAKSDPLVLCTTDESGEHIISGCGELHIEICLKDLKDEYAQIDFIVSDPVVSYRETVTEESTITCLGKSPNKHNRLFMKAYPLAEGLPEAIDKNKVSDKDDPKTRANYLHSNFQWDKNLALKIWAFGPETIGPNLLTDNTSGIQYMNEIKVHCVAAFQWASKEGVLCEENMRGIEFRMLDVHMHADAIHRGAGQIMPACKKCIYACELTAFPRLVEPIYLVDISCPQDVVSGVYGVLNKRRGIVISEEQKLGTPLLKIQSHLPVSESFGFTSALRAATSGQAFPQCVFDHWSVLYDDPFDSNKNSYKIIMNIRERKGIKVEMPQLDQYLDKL
UniProt Q8I3V5: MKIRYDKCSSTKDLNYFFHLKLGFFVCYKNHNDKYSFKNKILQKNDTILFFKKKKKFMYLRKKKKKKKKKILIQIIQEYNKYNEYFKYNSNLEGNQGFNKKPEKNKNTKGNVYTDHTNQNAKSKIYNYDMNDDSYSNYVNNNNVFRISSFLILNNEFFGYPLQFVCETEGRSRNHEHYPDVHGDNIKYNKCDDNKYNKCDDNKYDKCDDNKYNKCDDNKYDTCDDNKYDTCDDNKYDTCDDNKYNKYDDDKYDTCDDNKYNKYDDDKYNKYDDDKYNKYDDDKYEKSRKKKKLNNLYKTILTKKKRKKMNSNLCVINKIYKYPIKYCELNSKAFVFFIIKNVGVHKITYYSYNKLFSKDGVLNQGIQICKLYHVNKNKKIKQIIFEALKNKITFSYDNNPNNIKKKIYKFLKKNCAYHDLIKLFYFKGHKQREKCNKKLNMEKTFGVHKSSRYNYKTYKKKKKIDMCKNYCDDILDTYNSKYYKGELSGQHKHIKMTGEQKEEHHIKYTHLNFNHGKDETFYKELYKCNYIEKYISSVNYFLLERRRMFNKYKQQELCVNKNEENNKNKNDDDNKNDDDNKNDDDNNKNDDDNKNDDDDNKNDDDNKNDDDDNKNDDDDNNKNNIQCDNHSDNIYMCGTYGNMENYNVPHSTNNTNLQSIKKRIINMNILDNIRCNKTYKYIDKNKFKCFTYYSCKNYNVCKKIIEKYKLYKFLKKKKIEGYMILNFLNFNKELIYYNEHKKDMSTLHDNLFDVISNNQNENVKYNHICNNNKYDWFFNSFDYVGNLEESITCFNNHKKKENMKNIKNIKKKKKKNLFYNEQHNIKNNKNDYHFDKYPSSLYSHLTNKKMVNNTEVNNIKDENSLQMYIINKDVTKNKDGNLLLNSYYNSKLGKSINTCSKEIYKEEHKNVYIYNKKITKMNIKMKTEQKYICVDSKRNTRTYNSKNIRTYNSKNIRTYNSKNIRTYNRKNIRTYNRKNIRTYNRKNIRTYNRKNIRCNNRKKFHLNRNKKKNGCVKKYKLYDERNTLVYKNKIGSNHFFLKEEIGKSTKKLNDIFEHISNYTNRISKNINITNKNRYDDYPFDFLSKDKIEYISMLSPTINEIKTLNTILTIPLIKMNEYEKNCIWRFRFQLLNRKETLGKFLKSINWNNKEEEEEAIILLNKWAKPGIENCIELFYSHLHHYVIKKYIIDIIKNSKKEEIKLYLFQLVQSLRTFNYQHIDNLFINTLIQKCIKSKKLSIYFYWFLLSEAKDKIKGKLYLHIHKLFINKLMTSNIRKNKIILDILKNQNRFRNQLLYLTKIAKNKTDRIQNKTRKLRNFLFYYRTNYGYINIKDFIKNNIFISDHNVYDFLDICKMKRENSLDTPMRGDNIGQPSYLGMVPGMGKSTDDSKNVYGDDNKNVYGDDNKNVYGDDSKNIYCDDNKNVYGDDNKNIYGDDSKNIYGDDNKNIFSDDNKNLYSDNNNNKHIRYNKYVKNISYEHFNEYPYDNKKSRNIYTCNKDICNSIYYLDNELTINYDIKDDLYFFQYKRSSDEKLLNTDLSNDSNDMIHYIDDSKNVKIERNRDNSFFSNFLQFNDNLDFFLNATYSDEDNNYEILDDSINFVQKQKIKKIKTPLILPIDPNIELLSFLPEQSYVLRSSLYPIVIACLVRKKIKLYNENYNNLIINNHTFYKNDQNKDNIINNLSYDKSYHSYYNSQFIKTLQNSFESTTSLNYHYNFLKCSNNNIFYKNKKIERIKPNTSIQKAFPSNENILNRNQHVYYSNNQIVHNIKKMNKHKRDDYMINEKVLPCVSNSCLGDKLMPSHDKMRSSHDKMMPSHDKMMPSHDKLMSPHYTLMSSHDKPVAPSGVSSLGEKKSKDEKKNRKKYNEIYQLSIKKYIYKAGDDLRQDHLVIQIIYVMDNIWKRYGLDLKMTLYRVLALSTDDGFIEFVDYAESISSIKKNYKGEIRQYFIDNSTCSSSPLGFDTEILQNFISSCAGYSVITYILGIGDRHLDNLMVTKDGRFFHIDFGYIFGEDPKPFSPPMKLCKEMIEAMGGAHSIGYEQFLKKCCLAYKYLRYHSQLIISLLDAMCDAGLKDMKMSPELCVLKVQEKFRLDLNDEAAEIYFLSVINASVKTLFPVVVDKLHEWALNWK
UniProt P50250: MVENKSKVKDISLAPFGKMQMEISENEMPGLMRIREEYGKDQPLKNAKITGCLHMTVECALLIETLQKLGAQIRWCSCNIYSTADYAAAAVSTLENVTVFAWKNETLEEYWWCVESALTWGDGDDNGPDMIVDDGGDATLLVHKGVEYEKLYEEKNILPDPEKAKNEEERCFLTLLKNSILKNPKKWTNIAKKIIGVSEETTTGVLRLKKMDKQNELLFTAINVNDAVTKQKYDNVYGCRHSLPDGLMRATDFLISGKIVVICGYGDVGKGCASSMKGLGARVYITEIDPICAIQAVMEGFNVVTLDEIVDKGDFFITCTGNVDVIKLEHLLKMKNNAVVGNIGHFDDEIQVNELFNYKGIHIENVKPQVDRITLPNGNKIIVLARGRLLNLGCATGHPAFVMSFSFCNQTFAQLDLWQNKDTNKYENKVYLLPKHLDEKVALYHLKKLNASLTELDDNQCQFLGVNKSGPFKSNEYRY
UniProt Q8ILW9: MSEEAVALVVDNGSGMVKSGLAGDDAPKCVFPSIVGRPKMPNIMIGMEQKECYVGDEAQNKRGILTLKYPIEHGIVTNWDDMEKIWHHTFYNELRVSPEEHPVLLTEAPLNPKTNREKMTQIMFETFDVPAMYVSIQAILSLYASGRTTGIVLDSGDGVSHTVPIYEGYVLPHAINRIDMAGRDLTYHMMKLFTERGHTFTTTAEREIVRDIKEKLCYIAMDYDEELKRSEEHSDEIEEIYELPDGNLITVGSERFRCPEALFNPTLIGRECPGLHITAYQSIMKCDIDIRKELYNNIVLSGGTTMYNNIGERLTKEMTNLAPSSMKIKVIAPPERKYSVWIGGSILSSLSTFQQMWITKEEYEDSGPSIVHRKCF

For the assay, the target named is T1, Kelch protein K13 (P. falciparum (endogenous in Cam3.II and CamWT parasites)) (UniProt Q8IDQ2).
T1 sequence: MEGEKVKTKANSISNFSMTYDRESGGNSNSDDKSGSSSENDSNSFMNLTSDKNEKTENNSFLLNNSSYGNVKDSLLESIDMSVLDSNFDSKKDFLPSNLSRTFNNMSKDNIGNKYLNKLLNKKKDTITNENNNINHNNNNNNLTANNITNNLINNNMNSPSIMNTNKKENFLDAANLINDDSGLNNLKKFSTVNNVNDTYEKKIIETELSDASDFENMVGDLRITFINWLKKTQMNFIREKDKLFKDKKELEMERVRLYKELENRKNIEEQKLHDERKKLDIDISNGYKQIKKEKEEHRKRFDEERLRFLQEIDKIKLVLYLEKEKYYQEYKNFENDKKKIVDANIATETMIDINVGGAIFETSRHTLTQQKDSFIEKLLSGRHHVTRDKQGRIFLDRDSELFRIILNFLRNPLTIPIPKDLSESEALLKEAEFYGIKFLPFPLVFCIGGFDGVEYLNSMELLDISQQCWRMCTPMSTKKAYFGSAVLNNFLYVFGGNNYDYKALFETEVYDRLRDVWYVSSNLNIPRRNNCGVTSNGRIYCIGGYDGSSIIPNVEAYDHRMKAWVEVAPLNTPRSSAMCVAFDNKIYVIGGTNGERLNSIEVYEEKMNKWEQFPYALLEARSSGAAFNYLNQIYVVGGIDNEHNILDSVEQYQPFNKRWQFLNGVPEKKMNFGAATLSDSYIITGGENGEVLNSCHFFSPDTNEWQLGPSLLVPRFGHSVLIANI
The assay can be described thus: affinity purification with mass spectrometry; co-IP with a mix of the K13 mAbs E3 and D9 (2.5 ug each) coupled to Pierce Direct IP columns; 500 ug parasite lysate in Pierce IP Lysis Buffer; cultures enriched in 0-12 hpi rings of Cam3.II (K13 WT, C580Y, R539T) and CamWT (WT, C580Y); eluates by LC-MS/MS; 6 experiments, 13 test samples, 10 negative controls.

These are yes or no findings as the source states them, for the method shown. In cells and extracts the contact can be indirect. Here binding means that the protein was enriched with, or labelled near, the bait; the list need not be complete. A no says only that the protein was not detected with the bait.

For the substance “Cysteine desulfurase, putative (from UniProt Q8IBI5)”, the binding result is given as “binds”.

Rab18B: the binding entry is reported as “binds”.

“V-type proton ATPase subunit E, putative (from UniProt Q8I2H3)”: the binding entry is “binds”.

Turning to “Succinyl-CoA ligase, putative (from UniProt Q8IL89)”, the binding entry is given as “binds”.

Regarding Sec61, the binding result is “binds”.

On to “40S ribosomal protein S2 (from UniProt Q8IJD4 1-263)”, for which the binding result is “binds”.

With “Eukaryotic translation initiation factor 2 subunit gamma, putative (from UniProt Q8ILY9)”, the binding entry is recorded as “binds”.

On to “Dicarboxylate/tricarboxylate carrier (from UniProt Q8IB73)”, for which the binding entry is given as “binds”.

For CPN20 (from UniProt Q50JA7), the binding result is given as “binds”.

With isocitrate dehydrogenase, the binding result is given as “binds”.

As for “40S ribosomal protein S15A, putative (from UniProt O77395)”, the binding entry is “binds”.

For “Protein transport protein Sec24A (from UniProt C0H5J6)”, the binding result is “binds”.

Take “glutathione peroxidase-like thioredoxin peroxidase”: the binding entry was “binds”.

For the substance “Dolichyl-phosphate-mannose-protein mannosyltransferase, putative”, the binding entry is “binds”.

With “Phosphoglucomutase 2, putative (from UniProt Q8I1V2)”, the binding entry is on record as “binds”.

As for Chaperone protein ClpB, the binding entry is “binds”.

On to ATP synthase F1 alpha subunit, for which the binding result is reported as “binds”.

“40S ribosomal protein S3 (from UniProt Q8IKH8)”: the binding entry is reported as “binds”.

“Superoxide dismutase [Fe] (from UniProt C6KT71)”: the binding entry is “binds”.

As to “26S proteasome AAA-ATPase subunit RPT2, putative (from UniProt Q8IJW0)”, the binding entry was “binds”.

Rab1A: the binding result is on record as “binds”.

Consider Rab7, for which the binding result is “binds”.

Take Casein kinase 2, alpha subunit: the binding result is “binds”.

“60S ribosomal protein L4 (from UniProt Q8I431)”: the binding result is reported as “binds”.

Take mitochondrial matrix protein 33: the binding entry is “binds”.

For the substance “Dynamin-like protein (from UniProt Q8IHR4)”, the binding result is given as “binds”.

With AP-2μ, the binding result is “no binding”.

On to “RNA-binding protein, putative (from UniProt C0H570)”, for which the binding result is reported as “binds”.

“26S proteasome AAA-ATPase subunit RPT4, putative (from UniProt Q8IEQ1)”: the binding result was “binds”.

Consider “Inosine-5'-monophosphate dehydrogenase (from UniProt Q8I2U5)”, for which the binding entry is given as “binds”.

As for “ATP-dependent RNA helicase DBP1, putative (from UniProt Q8IAU1)”, the binding result is on record as “binds”.

As to “mitochondrial-processing peptidase alpha subunit”, the binding entry is reported as “binds”.

On to “40S ribosomal protein S9, putative (from UniProt Q8I3R0)”, for which the binding result is on record as “binds”.

As for “RAP domain-containing protein (from UniProt Q8I289)”, the binding entry is on record as “binds”.

Turning to plasmepsin II (from UniProt Q8I6V3), the binding entry was “binds”.

As for PfCRT (from UniProt Q8IBZ9 1-424), the binding result is recorded as “binds”.

With “Elongation factor Tu, putative (from UniProt Q8IE20)”, the binding result is “binds”.

Take “Ferrodoxin NADP+ reductase (from UniProt Q8IBP8)”: the binding entry is “binds”.

As to “Malate:quinone oxidoreductase, putative (from UniProt C6KT09)”, the binding result is on record as “binds”.

Take Rab1B (from UniProt Q9BHN1 1-200): the binding result is given as “binds”.

For EIF1α, the binding result is on record as “binds”.

For ATP-dependent protease subunit ClpQ, the binding result is on record as “binds”.

For the substance “Fumarate hydratase, putative (from UniProt Q8I2N6)”, the binding result is “binds”.

For “Prohibitin, putative (from UniProt Q8IBC3)”, the binding entry was “binds”.

Regarding “ATP-dependent zinc metalloprotease FTSH 1”, the binding result is on record as “binds”.

For the substance “Ras-related protein Rab5C (from UniProt Q8I274)”, the binding entry is given as “binds”.

On to succinyl-CoA synthetase alpha subunit, for which the binding result is “binds”.

Take “Tubulin beta chain (from UniProt Q7KQL5 1-445)”: the binding result is on record as “binds”.

Take “Tudor staphylococcal nuclease (from UniProt Q8II01)”: the binding entry is “binds”.

Take “Pyridoxine biosynthesis protein PDX1 (from UniProt C6KT50 1-301)”: the binding result is recorded as “binds”.

As for S-adenosylmethionine synthetase, the binding result is “binds”.

Take lipoamide acyltransferase: the binding result is listed as “binds”.

For the substance “40S ribosomal protein S8e, putative (from UniProt Q8IM10)”, the binding entry is “binds”.

“elongation factor 2 (from UniProt Q8IKW5 1-832)”: the binding entry is “binds”.

“26S proteasome regulatory subunit RPN1, putative (from UniProt O96153)”: the binding result was “binds”.

On to “60S ribosomal protein L6-2, putative (from UniProt A0A5K1K8V8)”, for which the binding entry is “binds”.

On to Karyopherin beta (from UniProt Q8I3M5), for which the binding entry is given as “binds”.

As to “Cytochrome bc1 complex subunit Rieske, putative (from UniProt Q8IL75)”, the binding entry is listed as “binds”.

For “40S ribosomal protein S16, putative (from UniProt Q8IAX5)”, the binding entry is listed as “binds”.

Turning to “40S ribosomal protein S10, putative (from UniProt Q8IBQ5)”, the binding result was “binds”.

As for Eukaryotic initiation factor 4A, the binding entry is “binds”.

“26S proteasome regulatory subunit RPN7, putative (from UniProt Q8II71)”: the binding entry was “binds”.

With “Glycerol-3-phosphate 1-O-acyltransferase (from UniProt Q8I5S7)”, the binding result is recorded as “binds”.

With “2-oxoglutarate dehydrogenase E1 component (from UniProt Q8I6S5)”, the binding result is “binds”.

For “Multidrug resistance-associated protein 1 (from UniProt Q9U0N4)”, the binding entry is “binds”.

With “ATP-dependent 6-phosphofructokinase (from UniProt Q8I2Z8)”, the binding entry is on record as “binds”.

“Protein transport protein Sec23 (from UniProt Q8IB60)”: the binding result is “binds”.

Take PI3K (from UniProt Q8I3V5 1-2133): the binding entry is on record as “no binding”.

For “Adenosylhomocysteinase (from UniProt P50250 1-479)”, the binding result is recorded as “binds”.

As to “Ribose-phosphate pyrophosphokinase, putative (from UniProt Q8IE40)”, the binding entry is recorded as “binds”.

On to Actin II (from UniProt Q8ILW9 1-376), for which the binding result was “binds”.
